Measured data: PubChem BioAssay AID652243 (Drosophila RNAi Screening Center, 2013)

Screen: 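Fly regulators of androgen-dependent reporter output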 (primary screen)
System: Drosophila S2R+ cells
Reagent: long dsRNA against Drosophila genes
Time to read-out: 72 h (48 h, then 24 h hormone)
Challenge: synthetic androgen R1881 at 10 nM for 24 h
Measured: 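Firefly light from an androgen-responsive reporter and Renilla control light per well, raw and unnormalised, for each of two replicates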
Scale: firefly reporter light: higher = more light from androgen-responsive reporter; Renilla control light: higher = more constitutive control signal (cell number, transfection)
Rule for the call: 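Hit when the log firefly-to-Renilla ratio dropped or increased by a fixed fold versus the mean of GFP or LacZ controls across duplicate plates; lowering cut given as 1.5 and as 3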
Calls: active = hit: reporter lowered or raised; inactive = no hit
The deposit covers about 24,000 reagents; shown is a random part of those that have a named target and a result. In the full data, 246 (1%) are marked active. 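Plates not normalised; calls are printed but the firefly/Renilla ratio behind them is not deposited; fold cut for lowering reported inconsistently.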 Raw values are not corrected between plates. Reagents against one gene are numbered here. Not stated in the record: the amount of reagent.

| target | reagent no. | firefly reporter light, replicate 1 | firefly reporter light, replicate 2 | Renilla control light, replicate 1 | Renilla control light, replicate 2 | Call |
| --- | --- | --- | --- | --- | --- | --- |
| CG14357 | 1 | 78555 | 1.48e5 | 1.97e6 | 2.07e6 | inactive |
| CG14357 | 2 | 4.43e5 | 4.22e5 | 2.02e6 | 2.01e6 | inactive |
| CG9068 | 1 | 70989 | 84619 | 1.46e6 | 1.46e6 | inactive |
| SREBP | 1 | 2.12e5 | 1.12e5 | 2.39e6 | 1.38e6 | inactive |
| CG17036 | 1 | 2.14e5 | 2.86e5 | 2.09e6 | 2.15e6 | inactive |
| CG17036 | 2 | 2.75e5 | 2.37e5 | 7.06e5 | 5.97e5 | inactive |
| cac | 1 | 6.71e5 | 7.48e5 | 4.20e6 | 4.47e6 | inactive |
| cac | 2 | 80883 | 1.01e5 | 6.74e5 | 6.27e5 | inactive |
| cac | 3 | 1.03e6 | 1.27e6 | 1.39e6 | 1.65e6 | inactive |
| fat-spondin | 1 | 1.18e6 | 1.19e6 | 1.86e6 | 1.92e6 | inactive |
| Hrb98DE | 1 | 35213 | 51848 | 4.44e5 | 3.72e5 | inactive |
| Hrb98DE | 2 | 2.44e5 | 2.42e5 | 6.23e5 | 6.61e5 | active |
| CG11200 | 1 | 1.06e6 | 6.39e5 | 1.75e6 | 8.37e5 | inactive |
| CG11200 | 2 | 2.80e5 | 3.29e5 | 5.04e5 | 5.10e5 | inactive |
| CG14302 | 1 | 3.40e5 | 2.86e5 | 4.93e6 | 3.21e6 | inactive |
| CG34223 | 1 | 8.34e5 | 8.99e5 | 2.17e6 | 1.92e6 | inactive |
| Eno | 1 | 1.12e5 | 1.38e5 | 8.83e5 | 1.07e6 | inactive |
| Alp7 | 1 | 1.95e5 | 1.51e5 | 1.05e6 | 8.20e5 | inactive |
| Alp7 | 2 | 4.35e5 | 3.37e5 | 7.70e5 | 5.51e5 | inactive |
| Alp7 | 3 | – | – | – | – | inactive |
| Ppa | 1 | 3.50e5 | 3.96e5 | 2.31e6 | 1.82e6 | inactive |
| Ppa | 2 | 4.68e5 | 3.90e5 | 1.32e6 | 1.27e6 | inactive |
| ZIPIC | 1 | 1.70e5 | 1.37e5 | 9.83e5 | 5.59e5 | inactive |
| CG11594 | 1 | 1.14e6 | 5.66e5 | 1.98e6 | 1.38e6 | inactive |
| CheA7a | 1 | 2.62e5 | 3.00e5 | 2.26e6 | 2.58e6 | inactive |
| CG7049 | 1 | 6.17e5 | 8.38e5 | 1.48e6 | 1.51e6 | inactive |
| CG7049 | 2 | 3.17e5 | 4.35e5 | 6.33e5 | 5.47e5 | inactive |
| Rab14 | 1 | 1.02e6 | 1.04e6 | 2.21e6 | 1.80e6 | inactive |
| Rab14 | 2 | 7.26e5 | 5.93e5 | 7.92e5 | 9.50e5 | inactive |
| Gel | 1 | 68423 | 62231 | 3.18e5 | 3.80e5 | inactive |
| Gel | 2 | 4.26e5 | 2.97e5 | 5.55e5 | 5.35e5 | inactive |
| Mkp3 | 1 | 78652 | 1.01e5 | 5.68e5 | 6.54e5 | active |
| Mkp3 | 2 | 3.26e5 | 2.44e5 | 2.60e6 | 2.12e6 | inactive |
| CG9289 | 1 | 3.13e5 | 3.26e5 | 1.25e6 | 1.32e6 | inactive |
| CG9289 | 2 | 6.23e5 | 5.72e5 | 1.68e6 | 1.58e6 | inactive |
| ics | 1 | 9.49e5 | 1.63e6 | 1.84e6 | 2.97e6 | inactive |
| ics | 2 | 3.26e5 | 5.51e5 | 9.33e5 | 9.33e5 | inactive |
| CG30325 | 1 | 1.06e5 | 1.48e5 | 3.02e5 | 3.89e5 | inactive |
| PIG-Wa | 1 | 1.27e5 | 1.08e5 | 7.91e5 | 7.31e5 | inactive |
| Sec6 | 1 | 9.40e5 | 9.88e5 | 1.76e6 | 1.75e6 | inactive |

6 successive entries already listed:
| target | reagent no. | firefly reporter light, replicate 1 | firefly reporter light, replicate 2 | Renilla control light, replicate 1 | Renilla control light, replicate 2 | Call |
| --- | --- | --- | --- | --- | --- | --- |
| cac | 3 | 1.03e6 | 1.27e6 | 1.39e6 | 1.65e6 | inactive |
| fat-spondin | 1 | 1.18e6 | 1.19e6 | 1.86e6 | 1.92e6 | inactive |
| Hrb98DE | 1 | 35213 | 51848 | 4.44e5 | 3.72e5 | inactive |
| Hrb98DE | 2 | 2.44e5 | 2.42e5 | 6.23e5 | 6.61e5 | active |
| CG11200 | 1 | 1.06e6 | 6.39e5 | 1.75e6 | 8.37e5 | inactive |
| CG11200 | 2 | 2.80e5 | 3.29e5 | 5.04e5 | 5.10e5 | inactive |
